Data as given in PubChem BioAssay AID652243 (Drosophila RNAi Screening Center, 2013).

Assay: 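Knock-downs that decrease or increase androgen receptor reporter signal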 (primary screen)
System: Drosophila S2R+ cells
Reagent: long dsRNA against Drosophila genes
Duration: 72 h (48 h, then 24 h hormone)
Challenge: synthetic androgen R1881 at 10 nM for 24 h
Read-out: 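Per-well raw luminescence of the androgen-driven firefly reporter and of the Renilla control, two replicates each, without normalisation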
Direction: firefly reporter light: higher = more light from androgen-responsive reporter; Renilla control light: higher = more constitutive control signal (cell number, transfection)
Rule for the call: 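Across duplicate plates, a knock-down whose log firefly/Renilla ratio shifted a set fold down or up from the GFP/LacZ control mean was a hit; the downward cut appears as both 1.5 and 3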
Calls: active = hit: reporter lowered or raised; inactive = no hit
The deposit covers about 24,000 reagents; this is a random part of those that have a named target and a result. In the full data, 246 (1%) were called active. 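Plates not normalised; calls are printed but the firefly/Renilla ratio behind them is not deposited; fold cut for lowering reported inconsistently.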 Raw values are not corrected between plates. Reagents against one gene are numbered here. Not stated in the record: the amount of reagent.

Knock-down of CG5001 #1 resulted in: firefly reporter light, replicate 1 = 87733; firefly reporter light, replicate 2 = 98445; Renilla control light, replicate 1 = 9.29e5; Renilla control light, replicate 2 = 7.63e5; inactive. For CG5001 #2, the entry reads firefly reporter light, replicate 1 = 3.83e5; firefly reporter light, replicate 2 = 3.28e5; Renilla control light, replicate 1 = 6.23e5; Renilla control light, replicate 2 = 3.57e5; inactive. CG31128 scored firefly reporter light, replicate 1 = 97823; firefly reporter light, replicate 2 = 1.27e5; Renilla control light, replicate 1 = 1.04e5; Renilla control light, replicate 2 = 91693; inactive. CG17580 #1 gave firefly reporter light, replicate 1 = 4.18e5; firefly reporter light, replicate 2 = 2.95e5; Renilla control light, replicate 1 = 1.28e6; Renilla control light, replicate 2 = 1.96e6; inactive. CG17580 #2 scored firefly reporter light, replicate 1 = 4.54e5; firefly reporter light, replicate 2 = 3.10e5; Renilla control light, replicate 1 = 7.98e5; Renilla control light, replicate 2 = 6.62e5; inactive. CG13561 showed firefly reporter light, replicate 1 = 3.18e5; firefly reporter light, replicate 2 = 4.26e5; Renilla control light, replicate 1 = 3.21e6; Renilla control light, replicate 2 = 2.77e6; inactive.

Smyd3 #1 showed firefly reporter light, replicate 1 = 3.32e5; firefly reporter light, replicate 2 = 2.74e5; Renilla control light, replicate 1 = 3.23e6; Renilla control light, replicate 2 = 2.26e6; inactive. Knock-down of Smyd3 #2 gave: firefly reporter light, replicate 1 = 4.60e5; firefly reporter light, replicate 2 = 4.18e5; Renilla control light, replicate 1 = 2.72e5; Renilla control light, replicate 2 = 3.11e5; inactive. Smyd3 #3 gave firefly reporter light, replicate 1 = 6.88e5; firefly reporter light, replicate 2 = 7.80e5; Renilla control light, replicate 1 = 1.68e6; Renilla control light, replicate 2 = 1.54e6; inactive. After knock-down of Sac1 #1, the screen gave firefly reporter light, replicate 1 = 8.32e5; firefly reporter light, replicate 2 = 1.06e6; Renilla control light, replicate 1 = 1.15e6; Renilla control light, replicate 2 = 1.24e6; inactive. With knock-down of Sac1 #2 the results were firefly reporter light, replicate 1 = 3.45e5; firefly reporter light, replicate 2 = 2.28e5; Renilla control light, replicate 1 = 5.92e5; Renilla control light, replicate 2 = 4.55e5; inactive. Sac1 #3 scored inactive.

Against ash2, the entry reads firefly reporter light, replicate 1 = 56937; firefly reporter light, replicate 2 = 38035; Renilla control light, replicate 1 = 6.08e5; Renilla control light, replicate 2 = 4.79e5; inactive. Depletion of aph-1 gave: firefly reporter light, replicate 1 = 6.38e5; firefly reporter light, replicate 2 = 7.50e5; Renilla control light, replicate 1 = 2.74e6; Renilla control light, replicate 2 = 1.79e6; inactive. Against Rrp47 #1, the values are firefly reporter light, replicate 1 = 6.28e5; firefly reporter light, replicate 2 = 5.18e5; Renilla control light, replicate 1 = 3.62e6; Renilla control light, replicate 2 = 2.93e6; inactive. Silencing of Rrp47 #2 came out at: firefly reporter light, replicate 1 = 7.26e5; firefly reporter light, replicate 2 = 5.48e5; Renilla control light, replicate 1 = 1.17e6; Renilla control light, replicate 2 = 1.25e6; inactive. CG8187 gave firefly reporter light, replicate 1 = 6.71e5; firefly reporter light, replicate 2 = 1.04e6; Renilla control light, replicate 1 = 2.06e6; Renilla control light, replicate 2 = 2.33e6; inactive. ball #1 scored firefly reporter light, replicate 1 = 74717; firefly reporter light, replicate 2 = 85339; Renilla control light, replicate 1 = 1.71e6; Renilla control light, replicate 2 = 1.96e6; active.

ball #2 gave firefly reporter light, replicate 1 = 2.53e5; firefly reporter light, replicate 2 = 2.90e5; Renilla control light, replicate 1 = 7.39e5; Renilla control light, replicate 2 = 6.46e5; inactive. Against CG5906, the values are firefly reporter light, replicate 1 = 1.71e5; firefly reporter light, replicate 2 = 1.62e5; Renilla control light, replicate 1 = 2.11e6; Renilla control light, replicate 2 = 1.41e6; inactive. Ucp4A #1 scored firefly reporter light, replicate 1 = 4.19e5; firefly reporter light, replicate 2 = 6.59e5; Renilla control light, replicate 1 = 1.03e6; Renilla control light, replicate 2 = 2.00e6; inactive. Ucp4A #2 scored firefly reporter light, replicate 1 = 5.36e5; firefly reporter light, replicate 2 = 4.22e5; Renilla control light, replicate 1 = 8.09e5; Renilla control light, replicate 2 = 6.44e5; inactive. Silencing of Ntf-2 #1 resulted in: firefly reporter light, replicate 1 = 1.46e5; firefly reporter light, replicate 2 = 1.33e5; Renilla control light, replicate 1 = 9.68e5; Renilla control light, replicate 2 = 9.68e5; inactive. Depletion of Ntf-2 #2 resulted in: firefly reporter light, replicate 1 = 6.61e5; firefly reporter light, replicate 2 = 5.50e5; Renilla control light, replicate 1 = 5.24e5; Renilla control light, replicate 2 = 6.20e5; inactive.

Obp56h #1 scored firefly reporter light, replicate 1 = 97273; firefly reporter light, replicate 2 = 1.21e5; Renilla control light, replicate 1 = 1.47e6; Renilla control light, replicate 2 = 1.31e6; inactive. Against Obp56h #2 the deposit lists firefly reporter light, replicate 1 = 4.22e5; firefly reporter light, replicate 2 = 4.61e5; Renilla control light, replicate 1 = 3.91e5; Renilla control light, replicate 2 = 4.75e5; inactive. After knock-down of kibra #1, the screen gave firefly reporter light, replicate 1 = 1.89e5; firefly reporter light, replicate 2 = 1.33e5; Renilla control light, replicate 1 = 3.02e6; Renilla control light, replicate 2 = 2.86e6; inactive. For kibra #2 the deposit lists firefly reporter light, replicate 1 = 7.79e5; firefly reporter light, replicate 2 = 8.46e5; Renilla control light, replicate 1 = 9.84e5; Renilla control light, replicate 2 = 1.17e6; inactive. After knock-down of kibra #3, the screen gave firefly reporter light, replicate 1 = 3.35e5; firefly reporter light, replicate 2 = 4.47e5; Renilla control light, replicate 1 = 8.62e5; Renilla control light, replicate 2 = 8.62e5; inactive.

Records listed above called active:
ball #1 — firefly reporter light, replicate 1 = 74717; firefly reporter light, replicate 2 = 85339; Renilla control light, replicate 1 = 1.71e6; Renilla control light, replicate 2 = 1.96e6; Outcome = active
